Data reported in paper PMC7323874, “Vancomycin Resistance Is Overcome by Conjugation of Polycationic Peptides” (Angewandte Chemie (International Ed. in English), 2020).

Experiments:
E. coli ATCC 25922 = assay: microbe, parasite or virus in culture; type: cell-based; settings: Escherichia coli, ATCC25922
Method: (§1) Antimicrobial testing – Microdilution
(§2) Antimicrobial testing was performed according to CLSI and EUCAST guidelines in microdilution.8-10 Therefore, all tested substances as well as controls were dissolved in water in different concentrations and serially diluted in MHB II (cation adjusted) on the 96-well plate. A logarithmic growing, overnight culture of the respective bacterial strain was used and adjusted to a McFarland corresponding to 1 × 10^8 cfu/ml. Afterwards the bacterial suspension was diluted to 1 ×10^6 cfu/ml and loaded on the 96-well polypropylene plates, resulting in a final bacterial concentration of 5 × 10^5 cfu/ml. After an incubation at 35 ± 1 °C for 18-20 hours (re-controlled after 24 hours) the MIC was determined as the lowest concentration without visible growth as described previously.11 For direct comparison of the tested substances, all results were calculated in mg/ml and mol/ml afterwards. […]
Resistance development in S. aureus was determined by passaging bacteria in increasing amounts of vancomycin, FU002 or, as control, fusidic acid. In principle, tubes with twofold dilutions of the compounds in 1 ml Muller Hinton broth were inoculated 1:100 with bacterial suspension. […]
(§3) For the validation of possible side effects provoked by the conjugates, the cytotoxic effect of the lead candidate FU002 on human cells was assessed in a colorimetric viability assay. […]

P. aeruginosa ATCC 27853 = assay: microbe, parasite or virus in culture; type: cell-based; settings: Pseudomonas aeruginosa, ATCC27853
Method: as §1, §2
As further control substance, the glycopeptide antibiotic teicoplanin was evaluated. […] Resistance development in S. aureus was determined by passaging bacteria in increasing amounts of vancomycin, FU002 or, as control, fusidic acid. […]
as §3

Question: For CN[C@H](CC(C)C)C(=O)N[C@H]1C(=O)N[C@@H](CC(N)=O)C(=O)N[C@H]2C(=O)N[C@H]3C(=O)N[C@H](C(=O)N[C@H](C(=O)O)c4cc(O)cc(O)c4-c4cc3ccc4O)[C@H](O)c3ccc(c(Cl)c3)Oc3cc2cc(c3O[C@@H]2O[C@H](CO)[C@@H](O)[C@H](O)[C@H]2O[C@H]2C[C@](C)(N)[C@H](O)[C@H](C)O2)Oc2ccc(cc2Cl)[C@H]1O [vancomycin], which MIC (E. coli ATCC 25922) is on record?
Answer: The MIC was at least 640 µg/mL.

Question: And the MIC (P. aeruginosa ATCC 27853)?
Answer: The MIC was at least 640 µg/mL.
